Results are given in words; binding and its absence hold for the method and conditions named. Some binding calls cover weakened binding; strength is not graded here. Where a sequence is shown, tags or fusion partners need not be part of it.

This is an account of results in PMC13365561.

Assay in all cases: cell aggregation assay; FreeStyle 293-F cells co-transfected with GFP or mCherry and a surface display plasmid, mixed 1:1, shaken 1 h at 37 °C; aggregation index from images
Experiment [1] addresses T1, BAI3 R366A (Flag-tagged, expressed on cells) (mouse) (UniProt Q80ZF8).
T1 sequence: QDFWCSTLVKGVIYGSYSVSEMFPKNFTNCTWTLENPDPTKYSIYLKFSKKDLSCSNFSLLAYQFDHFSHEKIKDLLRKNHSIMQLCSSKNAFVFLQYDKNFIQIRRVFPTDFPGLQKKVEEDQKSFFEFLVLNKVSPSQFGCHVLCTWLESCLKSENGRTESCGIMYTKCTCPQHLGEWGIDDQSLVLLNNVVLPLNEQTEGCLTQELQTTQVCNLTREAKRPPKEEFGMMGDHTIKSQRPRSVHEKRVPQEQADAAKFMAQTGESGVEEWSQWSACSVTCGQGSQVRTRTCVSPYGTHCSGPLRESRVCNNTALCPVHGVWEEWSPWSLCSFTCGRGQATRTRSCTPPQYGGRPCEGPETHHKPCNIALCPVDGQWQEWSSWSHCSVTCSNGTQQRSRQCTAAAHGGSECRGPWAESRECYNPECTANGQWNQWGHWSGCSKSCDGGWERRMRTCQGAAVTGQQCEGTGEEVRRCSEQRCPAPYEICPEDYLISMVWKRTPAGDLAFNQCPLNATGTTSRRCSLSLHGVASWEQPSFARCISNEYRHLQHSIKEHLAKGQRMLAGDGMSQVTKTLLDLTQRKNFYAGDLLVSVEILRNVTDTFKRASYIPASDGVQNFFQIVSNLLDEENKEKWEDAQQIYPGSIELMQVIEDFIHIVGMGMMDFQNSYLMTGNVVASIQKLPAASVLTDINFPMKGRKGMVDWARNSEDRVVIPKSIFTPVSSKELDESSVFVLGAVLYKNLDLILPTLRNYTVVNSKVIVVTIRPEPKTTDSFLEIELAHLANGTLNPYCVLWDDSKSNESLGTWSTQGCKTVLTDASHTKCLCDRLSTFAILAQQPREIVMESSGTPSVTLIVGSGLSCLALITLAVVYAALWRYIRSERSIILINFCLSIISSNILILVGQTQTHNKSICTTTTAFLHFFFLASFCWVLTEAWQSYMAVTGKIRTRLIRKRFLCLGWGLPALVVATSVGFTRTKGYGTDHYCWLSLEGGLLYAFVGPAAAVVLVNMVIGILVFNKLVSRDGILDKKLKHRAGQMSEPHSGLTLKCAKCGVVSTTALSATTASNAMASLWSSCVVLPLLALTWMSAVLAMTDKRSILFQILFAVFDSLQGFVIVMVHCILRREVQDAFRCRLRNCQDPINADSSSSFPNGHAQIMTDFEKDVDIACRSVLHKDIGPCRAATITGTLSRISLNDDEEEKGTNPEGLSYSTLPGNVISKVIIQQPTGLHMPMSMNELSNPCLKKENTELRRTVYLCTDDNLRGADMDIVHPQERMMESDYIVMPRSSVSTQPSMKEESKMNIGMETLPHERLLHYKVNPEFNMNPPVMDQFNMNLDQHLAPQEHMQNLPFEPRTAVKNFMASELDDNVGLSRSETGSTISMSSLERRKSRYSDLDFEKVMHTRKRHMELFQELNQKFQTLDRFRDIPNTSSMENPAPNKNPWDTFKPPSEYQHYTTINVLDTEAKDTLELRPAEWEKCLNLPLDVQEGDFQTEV

The target in experiment [2] is T2, wild-type BAI3 (Flag-tagged, expressed on cells) (mouse) (UniProt Q80ZF8).
T2 sequence: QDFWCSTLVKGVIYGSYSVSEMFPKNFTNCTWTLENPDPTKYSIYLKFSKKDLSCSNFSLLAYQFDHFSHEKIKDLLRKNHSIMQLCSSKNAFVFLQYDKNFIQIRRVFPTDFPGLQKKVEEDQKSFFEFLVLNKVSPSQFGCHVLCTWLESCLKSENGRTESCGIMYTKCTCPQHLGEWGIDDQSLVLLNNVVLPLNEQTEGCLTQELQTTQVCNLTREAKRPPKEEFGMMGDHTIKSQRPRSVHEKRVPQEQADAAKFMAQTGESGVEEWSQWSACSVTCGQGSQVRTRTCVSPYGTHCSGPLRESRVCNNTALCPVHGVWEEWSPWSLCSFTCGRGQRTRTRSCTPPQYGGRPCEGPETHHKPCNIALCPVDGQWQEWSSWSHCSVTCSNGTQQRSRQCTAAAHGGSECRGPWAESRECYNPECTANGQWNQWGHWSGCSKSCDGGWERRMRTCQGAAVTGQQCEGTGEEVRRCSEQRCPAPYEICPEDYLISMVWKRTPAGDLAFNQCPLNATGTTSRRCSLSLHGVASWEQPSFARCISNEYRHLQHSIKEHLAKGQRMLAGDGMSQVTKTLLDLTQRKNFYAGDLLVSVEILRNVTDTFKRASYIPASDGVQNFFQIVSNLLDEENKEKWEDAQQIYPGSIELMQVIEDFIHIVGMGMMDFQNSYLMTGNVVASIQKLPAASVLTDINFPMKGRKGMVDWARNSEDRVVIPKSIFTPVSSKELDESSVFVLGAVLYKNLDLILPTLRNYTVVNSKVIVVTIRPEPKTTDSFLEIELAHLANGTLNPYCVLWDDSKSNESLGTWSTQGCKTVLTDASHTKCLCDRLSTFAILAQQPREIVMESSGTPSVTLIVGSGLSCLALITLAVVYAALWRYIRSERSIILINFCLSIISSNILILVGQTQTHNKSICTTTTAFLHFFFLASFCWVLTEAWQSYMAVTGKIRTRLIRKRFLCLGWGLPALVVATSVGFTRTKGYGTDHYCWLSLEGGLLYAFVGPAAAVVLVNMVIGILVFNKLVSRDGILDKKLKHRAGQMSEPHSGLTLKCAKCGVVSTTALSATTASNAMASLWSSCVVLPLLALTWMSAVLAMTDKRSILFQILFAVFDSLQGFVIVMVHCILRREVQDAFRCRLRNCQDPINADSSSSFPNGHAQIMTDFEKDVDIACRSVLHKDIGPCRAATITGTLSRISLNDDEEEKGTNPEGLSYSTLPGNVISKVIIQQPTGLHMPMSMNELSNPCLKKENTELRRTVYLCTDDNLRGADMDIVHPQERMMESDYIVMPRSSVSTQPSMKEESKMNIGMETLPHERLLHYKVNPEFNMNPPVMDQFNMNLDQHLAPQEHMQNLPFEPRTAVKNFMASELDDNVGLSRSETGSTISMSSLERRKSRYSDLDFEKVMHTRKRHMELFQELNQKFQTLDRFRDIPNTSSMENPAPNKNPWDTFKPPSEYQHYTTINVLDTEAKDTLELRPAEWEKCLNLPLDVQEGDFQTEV

The target in experiment [3] is T3, BAI3 T360V (Flag-tagged, expressed on cells) (mouse) (UniProt Q80ZF8).
T3 sequence: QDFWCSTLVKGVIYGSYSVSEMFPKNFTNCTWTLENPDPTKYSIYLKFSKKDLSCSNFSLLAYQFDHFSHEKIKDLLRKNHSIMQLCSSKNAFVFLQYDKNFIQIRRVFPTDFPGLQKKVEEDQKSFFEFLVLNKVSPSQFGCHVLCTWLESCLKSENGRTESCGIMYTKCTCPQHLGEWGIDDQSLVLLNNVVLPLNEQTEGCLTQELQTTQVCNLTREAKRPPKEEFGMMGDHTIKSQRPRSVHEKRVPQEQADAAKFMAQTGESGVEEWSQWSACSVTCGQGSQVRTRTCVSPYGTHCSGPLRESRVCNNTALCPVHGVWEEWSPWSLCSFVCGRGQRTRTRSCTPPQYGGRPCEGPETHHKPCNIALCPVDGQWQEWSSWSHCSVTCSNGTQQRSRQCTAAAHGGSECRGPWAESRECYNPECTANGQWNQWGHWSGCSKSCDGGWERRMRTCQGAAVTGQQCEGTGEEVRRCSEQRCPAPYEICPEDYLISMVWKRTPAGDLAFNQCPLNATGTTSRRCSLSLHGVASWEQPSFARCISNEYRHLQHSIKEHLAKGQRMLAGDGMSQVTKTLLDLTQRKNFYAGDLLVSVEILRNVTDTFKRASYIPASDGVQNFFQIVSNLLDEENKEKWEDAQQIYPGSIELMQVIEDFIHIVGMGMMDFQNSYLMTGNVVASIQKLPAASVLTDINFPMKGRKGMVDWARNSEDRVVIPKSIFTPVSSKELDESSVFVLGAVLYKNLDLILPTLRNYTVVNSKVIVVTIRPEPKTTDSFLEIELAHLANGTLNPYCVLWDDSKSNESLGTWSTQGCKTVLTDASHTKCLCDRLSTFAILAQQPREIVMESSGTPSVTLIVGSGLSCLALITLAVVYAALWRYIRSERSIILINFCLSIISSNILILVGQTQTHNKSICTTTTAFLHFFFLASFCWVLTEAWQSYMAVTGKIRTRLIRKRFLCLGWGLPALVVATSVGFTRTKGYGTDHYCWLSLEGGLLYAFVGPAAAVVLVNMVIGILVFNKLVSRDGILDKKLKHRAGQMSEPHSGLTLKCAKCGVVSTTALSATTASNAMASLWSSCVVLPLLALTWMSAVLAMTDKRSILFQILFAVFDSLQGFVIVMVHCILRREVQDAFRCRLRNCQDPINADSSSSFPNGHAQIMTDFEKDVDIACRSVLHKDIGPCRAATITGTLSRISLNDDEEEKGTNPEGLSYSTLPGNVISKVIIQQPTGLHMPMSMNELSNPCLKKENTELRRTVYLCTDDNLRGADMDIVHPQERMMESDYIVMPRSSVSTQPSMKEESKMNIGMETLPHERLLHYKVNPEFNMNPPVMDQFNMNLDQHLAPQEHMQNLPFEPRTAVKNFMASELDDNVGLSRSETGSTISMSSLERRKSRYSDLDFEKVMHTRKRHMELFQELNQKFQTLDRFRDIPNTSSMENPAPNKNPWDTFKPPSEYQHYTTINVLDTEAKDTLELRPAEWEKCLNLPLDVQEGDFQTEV

B1: RTN4R (expressed on FreeStyle 293-F cells) (receptor, UniProt Q99PI8 27-447)
chain: CPGACVCYNEPKVTTSCPQQGLQAVPTGIPASSQRIFLHGNRISHVPAASFQSCRNLTILWLHSNALARIDAAAFTGLTLLEQLDLSDNAQLHVVDPTTFHGLGHLHTLHLDRCGLRELGPGLFRGLAALQYLYLQDNNLQALPDNTFRDLGNLTHLFLHGNRIPSVPEHAFRGLHSLDRLLLHQNHVARVHPHAFRDLGRLMTLYLFANNLSMLPAEVLMPLRSLQYLRLNDNPWVCDCRARPLWAWLQKFRGSSSEVPCNLPQRLADRDLKRLAASDLEGCAVASGPFRPIQTSQLTDEELLSLPKCCQPDAADKASVLEPGRPASAGNALKGRVPPGDTPPGNGSGPRHINDSPFGTLPSSAEPPLTALRPGGSEPPGLPTTGPRRRPGCSRKNRTRSHCRLGQAGSGASGTGDAEGS
As for B1, the binding result is reported as “no binding” in experiment [1], “binds” in experiment [2] and “no binding” in experiment [3].
